According to the supplement of paper PMC5949888:
Most values lie at the floor of the assay. Slopes are relative: functional sequences can read slightly below zero.

The substances below were run on Saccharomyces cerevisiae PS128 hsf1 delta, HSF1(1-493) fusion (assay: growth estimate (transactivation domain function in HSF1 fusion, heat-shock survival) (a.u. (slope of normalised read count over time)); higher = stronger growth at 37°C, i.e. more transactivation activity). Details: library: random library.

Substance | growth estimate
INQSRPNRVKPRTATDSHVC | < -0.25
LPNLQRIKSSGLRTSDSLQR | < -0.25
PRNFTAHHGGARYGFEVARK | -0.19
SLSECRRLVPFIHRVHYWTY | < -0.25
TVQYLFAIDLESGDRAPEHL | < -0.25
PWLIQQELHLRGDDDPITLY | < -0.25
PVICYSSYPTKWLLSLIWVQ | < -0.25
RCGLARRTGYVVVVGARRLG | < -0.25
PHVYNHVKR | < -0.25
PWC | < -0.25
GWYRGGESWGTHRN | < -0.25
DML | < -0.25
DRYHHLPANSLQSRNACAYV | < -0.25
ERFSEELTLLTQRRH | < -0.25
IVRV | < -0.25
LQSVRIDGFTVY | < -0.25
LGILPGDLVR | < -0.25
GLAYRAHLRSSDSRKYLKRL | < -0.25
RTTL | < -0.25
SRAT | < -0.25
NQT | < -0.25
LAGRGAPDAVFVEIHDNKKG | < -0.25
KYSGWVVIVLLLDEIPTRLL | < -0.25

Substance | growth estimate
AMDMYVAWL | < -0.25
QMDHV | < -0.25
SAKASGEG | < -0.25
RDAETALATKLSCAVTSTSV | < -0.25
QLT | < -0.25
NRTSLGHKGVSTLLNAARFA | < -0.25
WSMPAKFEERVREVQTAVVV | < -0.25
CYIIS | < -0.25
CVN | < -0.25
VEVRFFGGAAQLNVL | < -0.25
IGIRESVAHCGAFTARGELA | < -0.25
PGVKTQGYGGAKRGGQCRYY | < -0.25
DQSHESPRYKSTLGLRWHAC | < -0.25
VGVVTDRGVELG | < -0.25
RRTDRV | < -0.25
PAWLIQIHLRRLPRENALAR | < -0.25
RQCRSGRA | < -0.25
IWVDQCTHVRLYWIFWVLLN | < -0.25
RVEL | < -0.25
LNKAVRVLPAYLGGPPRTVA | < -0.25
FTLLMSQSA | < -0.25
METGNFVLGWFCARNARIAG | < -0.25
GTSRNGPSKKTVRRWLPPLP | < -0.25

Substance | growth estimate
KVLR | < -0.25
WGPTVVW | < -0.25
FGLYGTARGYQRPRVTPTAH | < -0.25
YTSSEGPNLATNLGYALVND | < -0.25
CNIRSNRHC | < -0.25
FQLKQRRSTRSSVYGNRVPA | < -0.25
PLLRDTKVQVLS | < -0.25
ESRGRICAVLYVVS | < -0.25
TFRCYNTQDIGSLLVTCLVN | < -0.25
DRPASTG | < -0.25
WLRLSRRATCML | < -0.25
PGTSNG | 0.135
RSGLWARPWIYLQDMELSPR | < -0.25
LACIRQSDRGP | -0.244
GSSWGTQSC | < -0.25
CSTIPVYFESACLFTGCRKS | < -0.25
TGTRGNRFP | < -0.25
MLHRVLAFEMFVAKGTPRSG | < -0.25
FRRLCQVFG | < -0.25
IKKCKGIWTTSLVAVLQRSR | < -0.25
LVYCL | < -0.25
TASRE | < -0.25
VGGGKTQNRNNSLLFSLGHR | < -0.25

Substance | growth estimate
SGYTLNYARFLGSVALFVRY | < -0.25
SCENLRCVFRFSAQLFVG | < -0.25
PYVTVNVPRPILTRVY | < -0.25
TKSTTGGAIPRVARSSS | < -0.25
AEKDHLPLLSGARRRGFN | < -0.25
VCFKGDDLSARWGD | < -0.25
SPCFVWQRTLASTDFTILTL | < -0.25
GWLIEGDPRARLLFVTMGHP | < -0.25
HVL | < -0.25
RPVKWLSLGLMYV | < -0.25
SIVLQAEALCSIIRASRLPE | < -0.25
GRVAGGLDSPARLPLKGPGE | < -0.25
VIDFTDVRCDEGLCVVSACT | < -0.25
ASKSLLRFSFKLHVSYPSSA | < -0.25
ADIADRDPKAVNAVECLIHV | < -0.25
RGVGGLSLNCRLLSGVRALT | < -0.25
WLRPLTSTIVSLYLRAGRYP | < -0.25
GCTCGTCEVPRGGIYDKEAG | < -0.25
HVRFSLSEFHAHREN | < -0.25
TGSSRPRIQASLLVTMAPTA | < -0.25
RWANTVYL | < -0.25
YSIGLIDTLRFLKPTRQAA | < -0.25
MRGKSAPLAHVRNASLRGAV | < -0.25

Substance | growth estimate
GYERMKIGS | < -0.25
EPSIRW | < -0.25
ICAGRIKALGRR | < -0.25
TCVAA | < -0.25
HVLVLCRPPVVSYGVVDLTV | -0.235
GLDTRTNGFRKDS | < -0.25
YAQEHMRDAHLVSHVKHYAK | < -0.25
WWCELSPPSLRDLG | < -0.25
VQI | < -0.25
PEIRRSPVISVLLCR | < -0.25
AGVCPLALTLIRCRIVLSAW | < -0.25
HPTIVSWHVRAPLSPSVAPV | < -0.25
VCKDGLPLFQGDLRHGCLRG | < -0.25
FSKTGSSTRISTSLRGPATR | < -0.25
RRTAL | < -0.25
ALDTSDRFGRKESGLRKRAN | < -0.25
KSS | < -0.25
AGIYHRLHVYPLIPRMLAGL | -0.246
YRGAHYVRHKPHCFTKFRLG | < -0.25
AQD | < -0.25
EITPAHLLDMLRIAI | < -0.25
WVHPSGFGRRMGDSKVVRRS | < -0.25
SGRVGDGGVT | < -0.25

Individual results from above:
For growth estimate, AGVCPLALTLIRCRIVLSAW has < -0.25
For growth estimate, TGTRGNRFP has < -0.25
For growth estimate, SCENLRCVFRFSAQLFVG has < -0.25
For growth estimate, GCTCGTCEVPRGGIYDKEAG has < -0.25
For growth estimate, VGGGKTQNRNNSLLFSLGHR has < -0.25

Already shown: an excerpt of the list.
Substance | growth estimate
TCVAA | < -0.25
HVLVLCRPPVVSYGVVDLTV | -0.235

Later entries:

Substance | growth estimate
DLRCGS | < -0.25
LSRSVTEARARHSANPCSGS | < -0.25
LVYQL | < -0.25
QLRMEQRARMVCWVN | < -0.25
IGNPRLLCHS | < -0.25
YWNMEAAVGQNIR | -0.0414
TFEAKEKVQSASYADN | < -0.25
LSVTAHSDASSSSR | < -0.25
AYLNGTAMSVEVSAVCPDSR | < -0.25
STHADERSEP | < -0.25
NLVLVVGRLSRRY | < -0.25
AIARGA | < -0.25
GDGIYSLWRHADEPPWSFHG | < -0.25
ITELNEQVPK | < -0.25
YSRLRVY | < -0.25
LELNNRAGLWQCGTKSHDAH | < -0.25
FFVKEGVSGRRPPPVTWTTP | < -0.25
LDRATELYPCHSGIREARIP | < -0.25
FGSVDPPNLPLFSLGNKHPG | < -0.25
LGCLLAGAPFCDPDMSGIVG | < -0.25
GSSQVADAYL | < -0.25
STRAIFK | < -0.25
SPRLLRVDALDIVCNRRCGW | < -0.25

Substance | growth estimate
GQVTKRWLYTHLAGYLHFYV | < -0.25
ELCPLGHSRTPKCLKIPLQC | < -0.25
TEVAHKSQFDLFGSRGPPLN | < -0.25
VHCFLLTYKLLSCTTCRDR | < -0.25
PKSLVSGGARRALSR | < -0.25
FHLRGYSDRLNPSAEKDMQR | < -0.25
CQRH | < -0.25
LRCSCLKKRLDGCPWPPGFG | < -0.25
GRFMFDRI | < -0.25
ATFSTRKRPECFGQAEVQSR | < -0.25
EKVARRYTMGNPR | < -0.25
CNLVFVIINAAQSDAGTQFV | < -0.25
RDREL | < -0.25
GLPH | < -0.25
AIDLVWKITTKNG | < -0.25
ADVVESCLQP | < -0.25
LKSANRVYTAQTPVHAIMKQ | < -0.25
GIRGSGDVSLARC | -0.216
LVTLVTVPLEGMARTSGVYE | < -0.25
SSSLGGLCNQAM | < -0.25
FEES | < -0.25
